According to PubChem BioAssay AID504444 (National Center for Advancing Translational Sciences (NCATS), 2011):
The campaign covered roughly 360,000 compounds. About 7,500 (2.1%) were called active. Inconclusive means that the source gave no clear call. Such entries were picked first, then a sample of the others. Calls come from the whole dose curve; as a rule, active = well fitted inhibition curve with a large enough effect; inconclusive = small, poorly fitted or top-dose-only effect, or effect the other way; inactive = flat fitted curve, though single readings scatter. Potencies beside an inconclusive call are fits to weak or partial responses and may not hold up.
Potency is the fitted concentration of half-maximal effect.

Assay: Nrf2 qHTS screen for inhibitors; note: nearly all actives have a fitted effect of over 60% in size
Settings: A549 ARE-Fluc reporter, luciferase luminescence, 18-24 h; series mostly up to 46 µM
In short: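 A549 ARE_Fluc cells (5000/well, 5% FBS OPTI-MEM) pre-incubated 2 h, then treated with compounds 18-24 h at 37C/5% CO2 in concentration-response. CellTiter-Fluor viability read first; BugLite luciferase luminescence after 15 min at room temperature gives Nrf2 activity.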
With O=S1(=O)CCN(CCc2c[nH]c3ccccc23)CC1 the Potency was inconclusive: 13 µM [activator, partial curve].
For Cc1c(OC(=O)N(C)C)ccc2c1O/C(=C\c1ccco1)C2=O, the Potency was inconclusive: 10.3 µM [activator, partial curve, poor fit].
For O=C(N1CCCCCC1)N1CC1, the Potency was “inactive”.
In the case of O=C(O)c1ccccc1-c1ccc(C=C2C(=O)N(c3ccccc3)C(=S)N(c3ccccc3)C2=O)o1, the Potency is reported as inconclusive: 25.9 µM [falling, single point].
With CCOP(=O)(OCC)C(NC(=O)c1cccc(C)c1)C(Cl)(Cl)Cl (stereo not given) the Potency was “inactive”.
In the case of COC(=O)C1=C(c2cccc(OCc3ccccc3)c2)C[C@@H]2CC[C@H]1N2C(=O)NCc1ccc(OC)c(OC)c1, the Potency is reported as inconclusive: 29.1 µM [falling, single point].
In the case of C=CCn1c(O)c(C(CC)=NCCC2=CCCCC2)c(=O)[nH]c1=O, the Potency is reported as inconclusive: 16.4 µM [falling, partial curve, poor fit].
In the case of NC(=O)c1cccn(Cc2ccc(C(F)(F)F)cc2)c1=O, the Potency is reported as active: 16.4 µM.
For COC(=O)C1=C(c2ccc(OC(F)(F)F)cc2)C[C@@H]2CC[C@H]1N2C(=O)NCCOc1ccc(OC)cc1, the Potency was active: 23.1 µM.
With COc1ccc(NC(=O)CCn2cnc3onc(-c4ccc(F)cc4)c3c2=O)cc1OC the Potency was active: 23.1 µM.
For CN1C(=O)C(=Cc2ccccc2OCCOc2ccc([N+](=O)[O-])cc2)C(=O)N(C)C1=O, the Potency was “inactive”.
With C=Cn1ccnc1P(=S)(c1c(C)nn(-c2ccccc2)c1C)c1nccn1C=C the Potency was inconclusive: 36.6 µM [falling, partial curve, poor fit].
For CCOC(=O)C1CCCN(c2ccc([N+](=O)[O-])c3nonc23)C1 (stereo not given), the Potency was “inactive”.
In the case of COC(=O)C1=C(c2ccc(-c3ccccc3)c(F)c2)C[C@@H]2CC[C@H]1N2C(=O)N1CCCCC1, the Potency is reported as inconclusive: 20.6 µM [falling, single point].
With Cc1cc(C(=O)OCC(=O)Nc2c(F)cccc2F)c(C)n1C1CC1 the Potency was “inactive”.
In the case of CC1(C)C2CC=C(CN3CCC(O)CC3)C1C2 (stereo not given), the Potency is reported as inconclusive: 0.0731 µM [activator, full curve, poor fit].
For Cc1cccc(-n2c(/C=C/c3cn(C)c4ccccc34)nc3ccccc3c2=O)c1, the Potency was inconclusive: 18.4 µM [falling, single point].
For Cc1cc(S(=O)(=O)NC(C)C)ccc1OCC(=O)N1CCN(Cc2ccc3c(c2)OCO3)CC1, the Potency was active: 9.2 µM.
For O=C1c2cccc3cccc(c23)C(=O)N1CCN1CCN(C(=S)Nc2ccccc2)CC1, the Potency was inconclusive: 29.1 µM [falling, single point].
For Cc1ccc(C)c(OCC(=O)N2CCN(Cc3ccc4c(c3)OCO4)CC2)c1, the Potency was “inactive”.
For COCCN(CCOC)S(=O)(=O)c1ccc(C(=O)Nc2sc3c(c2C(N)=O)CCCC3)cc1, the Potency was inconclusive: 23.1 µM [falling, single point].
With COC(=O)C1=C(c2ccccc2OCc2ccccc2)C[C@@H]2CC[C@H]1N2C(=O)NCc1ccccc1 the Potency was inconclusive: 5.8 µM [falling, full curve, poor fit].
With COCCNC(=O)Cn1cc(C(=O)c2ccccc2F)c2ccccc21 the Potency was inconclusive: 29.1 µM [falling, partial curve, poor fit].
With O=c1oc2ccccc2cc1-c1cn2cc(Cc3ccc(F)cc3)sc2n1 the Potency was inconclusive: 7.31 µM [activator, partial curve, poor fit].
With O=C(COc1ccccc1Cl)N1CCN(CCc2ccncc2)CC1 the Potency was “inactive”.
For Cc1ccc2c(c1)CC1(CN2C)C(=O)NC(=O)N(C(C)C)C1=O (stereo not given), the Potency was inconclusive: 5.17 µM [activator, single point].
In the case of CCCCC(=O)N/N=C/c1c(O)n(CCC2=CCCCC2)c(=O)[nH]c1=O, the Potency is reported as active: 18.4 µM.
For COC(=O)C1=C(c2cccc(OCc3ccccc3)c2)C[C@@H]2CC[C@H]1N2C(=O)NCCOc1ccccc1, the Potency was inconclusive: 20.6 µM [falling, single point].
For CCOc1ccc(NC(=O)c2cc3c(C)nn(-c4ccccc4)c3s2)cc1, the Potency was inconclusive: 10.3 µM [falling, partial curve, poor fit].
With CCC(=O)c1ccc(OCC(=O)N2CCN(CC(=O)Nc3ccc(C)cc3)CC2)cc1 the Potency was “inactive”.
In the case of COc1ccc(-c2c(C)nn3c(-c4ccccc4)cc(C)nc23)cc1OC, the Potency is reported as inconclusive: 25.9 µM [falling, single point].
In the case of CN1CCC(N(C)Cc2cccnc2)CC1, the Potency is reported as “inactive”.
In the case of COC(=O)c1c(C)n(Cc2ccc3c(c2)OCO3)c2ccc(O)cc12, the Potency is reported as inconclusive: 29.1 µM [falling, single point].
With CC1CCN(C(=O)C2CCN(c3nnc(-n4cccc4)s3)CC2)CC1 the Potency was inconclusive: 14.6 µM [falling, single point].
In the case of CC1=CC2OC3CC4OC(=O)C=CC=CC(=O)OCCC(C)C(O)C(=O)OCC2(CC1)C4(C)C31CO1 (stereo not given), the Potency is reported as active: 0.0046 µM.
In the case of COc1ccc(NP(=O)(Oc2cccc(C)c2)Oc2cccc(C)c2)cc1OC, the Potency is reported as inconclusive: 20.6 µM [falling, partial curve, poor fit].
In the case of Cc1ccc(S(=O)(=O)N(C)C[C@H]2Oc3c(NC(=O)Nc4cccc5ccccc45)cccc3C(=O)N([C@@H](C)CO)C[C@@H]2C)cc1, the Potency is reported as inconclusive: 18.4 µM [falling, single point].
With CCOC(=O)N1CCN(C(=O)c2ccc3c(=O)n(CCC4=CCCCC4)c(=S)[nH]c3c2)CC1 the Potency was inconclusive: 29.1 µM [falling, single point].
With CCCCn1c(O)c(C(C)=NCCc2ccccc2)c(=O)[nH]c1=O the Potency was inconclusive: 20.6 µM [falling, partial curve].
For O=C(COc1cccc(Cl)c1)N1CCN(CCc2ccncc2)CC1, the Potency was “inactive”.
With C#CCOC(=O)C1=CCCN(C)C1 the Potency was inconclusive: 16.4 µM [activator, partial curve].
With Brc1ccccc1OCCCN1CCOCC1 the Potency was inconclusive: 32.6 µM [activator, single point].
In the case of CN1C(=O)N(C)C(=O)C2(Cc3c(ccc4ccccc34)N(C)C2)C1=O, the Potency is reported as inconclusive: 9.2 µM [falling, partial curve, poor fit].
For O=C(OC1CCN(CCCl)CC1)C(c1ccccc1)c1ccccc1, the Potency was inconclusive: 29.1 µM [falling, single point].
In the case of CC(N)Cc1c[nH]c2c1ccc1ccccc12 (stereo not given), the Potency is reported as “inactive”.
For Cc1cccc(NC(=O)Cn2cc(C(=O)c3ccccc3)c3ccccc32)c1, the Potency was inconclusive: 18.4 µM [falling, single point].
In the case of O=C(Cc1ccc(N(CCCl)CCCl)cc1)NC(Cc1ccc(Cl)cc1)C(=O)O (stereo not given), the Potency is reported as “inactive”.
In the case of COC(=O)C1=C(c2ccc(Cl)c(C(F)(F)F)c2)C[C@@H]2CC[C@H]1N2C(=O)NC1CCCCC1, the Potency is reported as inconclusive: 25.9 µM [falling, single point].
With CCOC(=O)c1cccc(-[n+]2c(-c3ccccc3)cc(-c3ccccc3)cc2-c2ccccc2)c1 the Potency was inconclusive: 16.4 µM [falling, single point].
For O=C(NNC(=O)C12CC3CC(CC(C3)C1)C2)c1ccccc1F, the Potency was inconclusive: 16.4 µM [falling, single point].
For CCCCn1c(O)c(C=NCCCN(C)C)c(=O)[nH]c1=O, the Potency was inconclusive: 2.31 µM [activator, partial curve, poor fit].
In the case of Cc1cc(N2CCCCC2)nc2ccc(NC(=O)/C=C/c3ccc(OC(C)C)cc3)cc12, the Potency is reported as inconclusive: 5.17 µM [falling, single point].
With CSCCC(NS(=O)(=O)c1ccc2c(c1)oc(=O)n2C)C(=O)NC1CCCc2ccccc21 (stereo not given) the Potency was inconclusive: 0.164 µM [activator, full curve, poor fit].
With COc1ccc(-n2nc(C(=O)NCC(=O)N3CCC4(CC3)OCCO4)c3ccccc3c2=O)cc1 the Potency was inconclusive: 2.91 µM [activator, full curve].
With COC(=O)[C@@]12CCCCN1[C@H](c1ccc(-c3ccc(Cl)c(Cl)c3)c(OC)c1)[C@@H]1C(=O)N(C)C(=O)[C@@H]12 the Potency was active: 20.6 µM.
With CC(C)c1ccc(N2C(=O)NC(=O)/C(=C\c3cnc(-c4ccccc4)nc3)C2=O)cc1 the Potency was inconclusive: 29.1 µM [activator, single point].
For COc1ccc(C=C2C(=O)N(C)C(=O)N(C)C2=O)cc1CSc1ccccn1, the Potency was “inactive”.
For COc1ccc(C(=O)O)cc1OC, the Potency was “inactive”.
With COC(=O)C1=C(c2ccc(F)cc2OCc2ccccc2)C[C@@H]2CC[C@H]1N2C(=O)NCc1cccc(C(F)(F)F)c1 the Potency was inconclusive: 11.6 µM [falling, partial curve].
In the case of c1ccc(-c2ccc(-c3n(-c4ccccn4)c4ccccc4[n+]3-c3ccccn3)cc2)cc1, the Potency is reported as inconclusive: 29.1 µM [falling, single point].
With CC1(C)C2([N+](=O)[O-])CN3CC1([N+](=O)[O-])CN(C2)C3c1cccnc1 (stereo not given) the Potency was “inactive”.
In the case of CCN(CCCl)c1cc(CN(C)C)cc(NC(=O)c2ccc(C(=O)Nc3cc(CN(C)C)cc(N(CC)CCCl)c3)cc2)c1, the Potency is reported as active: 2.91 µM.
With CSCCC(N=Cc1c(O)n(-c2ccc(F)cc2)c(=O)[nH]c1=O)C(=O)OC(C)(C)C (stereo not given) the Potency was inconclusive: 25.9 µM [falling, single point].
With COc1cc(OC)c(OC)cc1CN1CCN(C(=O)COc2ccc3ccccc3c2)CC1 the Potency was inconclusive: 23.1 µM [falling, partial curve, poor fit].
With CCC1(CC)C(=N)N(C)C(=O)NC1=O the Potency was “inactive”.
